Earlier results in patent US20220387342A1, “TRANSDERMAL PATCH” (University of Sunderland, priority 2019, published 2022).
Where a name gives a salt, the structure may show the parent alone.

Conditions: hydrochloride; cited from earlier work

## O=C1CC[C@@]2(O)[C@H]3Cc4ccc(O)c5c4[C@@]2(CCN3CC2CC2)[C@H]1O5 [naltrexone hydrochloride]
  aqueous solubility: 90 mg/mL
